Measurements: publication PMC3316545
These are yes or no findings as the source states them, for the method shown. For some assays here: In cells and extracts the contact can be indirect.

Amino acid sequences for entries named in this document (tags omitted).
UniProt P07737: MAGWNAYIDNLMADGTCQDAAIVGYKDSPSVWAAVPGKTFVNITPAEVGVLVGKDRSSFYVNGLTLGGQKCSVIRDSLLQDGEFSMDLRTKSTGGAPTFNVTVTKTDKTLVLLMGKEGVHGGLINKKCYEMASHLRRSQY
UniProt P67775: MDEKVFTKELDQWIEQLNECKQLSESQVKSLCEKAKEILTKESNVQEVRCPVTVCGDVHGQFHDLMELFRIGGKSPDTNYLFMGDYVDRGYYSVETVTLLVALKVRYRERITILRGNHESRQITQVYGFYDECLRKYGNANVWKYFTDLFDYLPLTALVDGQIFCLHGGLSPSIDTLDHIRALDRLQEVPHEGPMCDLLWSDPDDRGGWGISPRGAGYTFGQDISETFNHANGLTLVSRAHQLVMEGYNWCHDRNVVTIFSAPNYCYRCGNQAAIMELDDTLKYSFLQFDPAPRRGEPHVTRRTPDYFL
UniProt P62139: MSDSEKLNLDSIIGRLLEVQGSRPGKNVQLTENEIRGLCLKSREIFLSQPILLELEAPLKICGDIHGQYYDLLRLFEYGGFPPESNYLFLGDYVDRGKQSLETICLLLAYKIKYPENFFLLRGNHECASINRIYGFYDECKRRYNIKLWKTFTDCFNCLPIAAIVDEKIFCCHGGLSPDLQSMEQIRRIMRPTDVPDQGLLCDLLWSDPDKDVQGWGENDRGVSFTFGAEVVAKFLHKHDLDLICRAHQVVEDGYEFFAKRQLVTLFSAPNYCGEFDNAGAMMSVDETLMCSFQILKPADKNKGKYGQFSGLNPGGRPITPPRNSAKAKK

Legend:
[1] = molecular target: 6His-PFN1 (wt) (human) (UniProt P07737); assay: condition: 2 µg PP1Cα in 100 µl; 10 µg 6His-PFN1 on beads; pull-down; 10 µg 6His-PFN1 held on 20 µl Ni-NTA beads (pre-blocked with 1% BSA); 2 µg recombinant PP1Cα in 100 µl 10 mM Tris-HCl pH 7.4, 150 mM NaCl, 0.1% BSA, 0.1% Triton X-100; 1 hr at 4°C, 4 washes; Western blot for PP1Cα; both purified
[2] = molecular target: Myc-PP2ACα, alpha isoform of the protein phosphatase 2A catalytic subunit (UniProt P67775); assay: co-IP; HEK293 cells co-transfected with Myc-tagged phosphatase and PFN1 (untagged or HA-tagged); lysis in 50 mM Tris-HCl pH 7.4, 150 mM NaCl, 0.1% Triton X-100; anti-Myc agarose beads, 2 hr at 4°C, 4 washes; Western blot for PFN1 or the HA tag

| Substance | binding [1] | binding [2] |
| --- | --- | --- |
| Alpha isoform of bacterially expressed recombinant PP1 catalytic subunit (from UniProt P62139 1-330) (enzyme) | no binding | – |
| Profilin-1 (PFN1), untagged, wild type (from UniProt P07737 1-140) | – | no binding |
